# Measured values: article PMC8450092
# The chains behind the UniProt entries cited, without tags or fusion partners. Where a name states a change or a piece, a line headed by the entry shows the natural chain unless it says otherwise.
# UniProt A4I7K4: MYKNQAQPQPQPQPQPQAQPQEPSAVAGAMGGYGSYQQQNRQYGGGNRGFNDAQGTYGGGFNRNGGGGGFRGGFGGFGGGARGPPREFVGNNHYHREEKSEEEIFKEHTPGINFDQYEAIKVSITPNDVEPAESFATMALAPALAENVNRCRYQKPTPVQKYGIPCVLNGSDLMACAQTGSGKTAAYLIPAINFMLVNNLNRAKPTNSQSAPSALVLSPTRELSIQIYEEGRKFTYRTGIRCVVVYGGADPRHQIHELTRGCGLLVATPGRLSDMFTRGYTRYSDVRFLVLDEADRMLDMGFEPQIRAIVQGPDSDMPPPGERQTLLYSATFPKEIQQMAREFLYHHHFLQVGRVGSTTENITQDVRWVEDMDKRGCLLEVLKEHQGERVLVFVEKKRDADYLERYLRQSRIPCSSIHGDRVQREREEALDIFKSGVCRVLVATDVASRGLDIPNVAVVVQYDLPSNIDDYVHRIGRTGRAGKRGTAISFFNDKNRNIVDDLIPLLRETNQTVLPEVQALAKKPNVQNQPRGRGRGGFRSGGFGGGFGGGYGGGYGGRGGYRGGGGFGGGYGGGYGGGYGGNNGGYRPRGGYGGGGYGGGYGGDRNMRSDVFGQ
# UniProt A4HZ70: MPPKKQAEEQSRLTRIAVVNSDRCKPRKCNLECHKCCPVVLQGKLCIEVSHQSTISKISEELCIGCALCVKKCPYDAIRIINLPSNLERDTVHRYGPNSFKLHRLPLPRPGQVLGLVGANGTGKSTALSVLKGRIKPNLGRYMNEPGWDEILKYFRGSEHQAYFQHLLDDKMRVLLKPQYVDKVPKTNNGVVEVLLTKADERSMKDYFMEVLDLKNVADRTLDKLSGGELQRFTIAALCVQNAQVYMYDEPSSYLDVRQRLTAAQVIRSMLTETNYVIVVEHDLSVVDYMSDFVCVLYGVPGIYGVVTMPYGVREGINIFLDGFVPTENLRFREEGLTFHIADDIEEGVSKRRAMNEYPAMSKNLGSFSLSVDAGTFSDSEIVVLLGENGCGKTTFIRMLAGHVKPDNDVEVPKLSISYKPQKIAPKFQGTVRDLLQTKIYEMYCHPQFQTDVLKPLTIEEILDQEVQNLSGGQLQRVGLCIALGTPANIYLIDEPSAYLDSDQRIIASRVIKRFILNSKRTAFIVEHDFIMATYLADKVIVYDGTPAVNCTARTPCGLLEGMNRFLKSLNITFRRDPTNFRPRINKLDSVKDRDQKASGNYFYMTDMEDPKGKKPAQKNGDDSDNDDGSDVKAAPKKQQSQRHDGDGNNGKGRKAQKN
# UniProt A4I2W3: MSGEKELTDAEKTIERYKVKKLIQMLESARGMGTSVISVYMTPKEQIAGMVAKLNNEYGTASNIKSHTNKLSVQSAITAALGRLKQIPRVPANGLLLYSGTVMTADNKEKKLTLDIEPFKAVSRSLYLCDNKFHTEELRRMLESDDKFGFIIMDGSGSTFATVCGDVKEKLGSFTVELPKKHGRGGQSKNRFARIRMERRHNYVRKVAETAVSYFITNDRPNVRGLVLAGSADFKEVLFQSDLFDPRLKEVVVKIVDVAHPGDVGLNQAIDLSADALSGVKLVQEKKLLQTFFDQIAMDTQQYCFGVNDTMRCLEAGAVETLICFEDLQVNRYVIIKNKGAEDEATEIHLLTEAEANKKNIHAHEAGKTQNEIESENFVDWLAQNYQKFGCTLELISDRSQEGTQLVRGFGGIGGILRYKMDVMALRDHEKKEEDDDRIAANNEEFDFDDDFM
# UniProt A4HV24: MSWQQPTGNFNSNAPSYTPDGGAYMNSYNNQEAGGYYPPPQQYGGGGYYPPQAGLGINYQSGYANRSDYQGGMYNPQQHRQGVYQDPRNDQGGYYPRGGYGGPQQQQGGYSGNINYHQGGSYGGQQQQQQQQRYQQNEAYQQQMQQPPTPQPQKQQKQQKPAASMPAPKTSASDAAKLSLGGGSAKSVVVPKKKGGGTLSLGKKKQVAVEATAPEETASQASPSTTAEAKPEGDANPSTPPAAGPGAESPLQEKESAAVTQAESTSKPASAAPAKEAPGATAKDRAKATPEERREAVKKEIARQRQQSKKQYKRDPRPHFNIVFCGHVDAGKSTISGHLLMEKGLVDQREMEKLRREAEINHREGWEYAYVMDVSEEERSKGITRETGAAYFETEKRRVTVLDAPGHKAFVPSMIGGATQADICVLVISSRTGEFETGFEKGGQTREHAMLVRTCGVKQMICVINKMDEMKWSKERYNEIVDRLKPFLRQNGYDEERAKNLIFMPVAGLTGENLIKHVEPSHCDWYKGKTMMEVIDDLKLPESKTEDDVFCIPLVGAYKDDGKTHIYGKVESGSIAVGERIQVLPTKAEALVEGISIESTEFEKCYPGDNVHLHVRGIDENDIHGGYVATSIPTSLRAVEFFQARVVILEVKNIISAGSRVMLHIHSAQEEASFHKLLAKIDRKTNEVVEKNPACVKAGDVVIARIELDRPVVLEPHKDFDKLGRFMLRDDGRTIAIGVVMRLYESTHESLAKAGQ
# Target: Leishmania infantum DDX3 tagged at the C-terminus with an HA epitope (LiDDX3-HA) (Leishmania infantum) (UniProt A4I7K4)
# Experiment: affinity purification with mass spectrometry; L. infantum promastigotes expressing the HA-tagged protein of interest were lysed and mixed with Pierce anti-HA magnetic beads; bound proteins analysed by LC-MS/MS (directly or after SDS-PAGE, excision and trypsin digestion)
row,binding,Substance
1,binds,Leishmania infantum Rli1/ABCE1 (endogenous) (from UniProt A4HZ70)
2,binds,Leishmania infantum eukaryotic release factor 1 (eRF1) (from UniProt A4I2W3)
3,binds,Leishmania infantum eukaryotic release factor 3 (eRF3) (from UniProt A4HV24)

# These are yes or no findings as the source states them, for the method shown. In cells and extracts the contact can be indirect. A yes stands for co-enrichment or nearness to the bait. Other partners may have been found.
